Measurements from PubChem BioAssay AID200 (DTP/NCI, 2004).
The list is a part of this screen's results and no random one: it covers a few groups of compounds. Not every dose and run of a compound is shown. T/C is the treated group as % of the vehicle group. For survival time, this PubChem deposit counts one and a half times the control or more as active, and values a quarter to a half above the control carry no call in these data; other NCI protocols may use other cut-offs. Schedule codes are those of the source, taken here to give the interval after Q, in days (D) or hours (H), and the number of doses after X.

Test system: B6C3F1 mice, B16 melanoma ip, median survival T/C
Assay: NCI In Vivo Anticancer Drug Screen. Data for tumor model B16 Melanoma (intraperitoneal) in B6C3F1 mice
Conditions: T/C endpoint: median survival time, schedule: Q01DX009 (ip), vehicle: saline, higher T/C = longer survival
Method: The antitumor activity of compounds was measured in mice bearing transplantable tumors. Survival or tumor size were measured and the results are expressed as the measurement made in the treated group (T) divided by the measurement made in the vehicle treated control group (C). The tumor model used in this assay is B16 Melanoma (intraperitoneal) in B6C3F1 mice

Compound: CN(CCCl)CCCl
- T/C (dose: 0.06 mg/kg/injection): 109 % of control
- T/C (dose: 0.12 mg/kg/injection): 134 % of control
- T/C (dose: 0.25 mg/kg/injection): 154 % of control
- T/C (dose: 0.5 mg/kg/injection): 189 % of control
- T/C (dose: 1.0 mg/kg/injection): 227 % of control
